Values from PubChem BioAssay AID1259308 (NCATS, 2017).

Aim: 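Candidate targets for better recombinant protein yield in mammalian cells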 (primary screen)
System: human HEK293 embryonic kidney cells stably expressing firefly luciferase (HEK-CMV-Luc2-Hygro)
Knock-down reagent: single siRNA against human genes, 0.8 pmol siRNA per well
Duration: 72 h
Measurement: 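Luciferase light (ONE-Glo) measured on one replicate plate set and viability (CellTiter-Glo) on the other, scaled to a negative control siRNA, with robust z-scores and luciferase per cell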
Scale: total luciferase, z-score and total luciferase, % of control: higher = more reporter protein produced
Active means: 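Active when the median/MAD z-score for overall luciferase is greater than 3; a gene was taken forward for validation with new siRNAs if at least two of its three siRNAs passed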
Meaning of the calls: active = raised luciferase; inactive = no rise
The deposit covers about 59,000 reagents; shown is a part drawn at random. About 1,510 of them (2.6%) were called active. 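Calls use total luciferase alone and ignore viability, so some active siRNAs may act by altering cell number.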 Reagents against one gene are numbered here. Further read-outs or replicates are left out here.

RPL18P4 (ribosomal protein L18 pseudogene 4) #1 gave total luciferase, z-score -1.98; total luciferase, % of control 42.6; inactive. Silencing of RPL18P4 (ribosomal protein L18 pseudogene 4) #2 gave: total luciferase, z-score 0.485; total luciferase, % of control 91.5; inactive. After knock-down of RPL18P4 (ribosomal protein L18 pseudogene 4) #3, the record shows total luciferase, z-score -1.04; total luciferase, % of control 61.2; inactive. Knock-down of RPL18P4 (ribosomal protein L18 pseudogene 4) #4 resulted in: total luciferase, z-score -0.607; total luciferase, % of control 69.8; inactive. For RPL18P4 (ribosomal protein L18 pseudogene 4) #5 the deposit lists total luciferase, z-score 0.13; total luciferase, % of control 84.5; inactive. RPL18P4 (ribosomal protein L18 pseudogene 4) #6 showed total luciferase, z-score -0.925; total luciferase, % of control 63.5; inactive.

CORO1B (coronin 1B) #1 scored total luciferase, z-score 0.205; total luciferase, % of control 86; inactive. With knock-down of CORO1B (coronin 1B) #2 the results were total luciferase, z-score -0.617; total luciferase, % of control 69.6; inactive. Against CORO1B (coronin 1B) #3 the deposit lists total luciferase, z-score 0.672; total luciferase, % of control 95.2; inactive. With knock-down of WDR75 (WD repeat domain 75) #1, the record shows total luciferase, z-score -0.364; total luciferase, % of control 74.6; inactive. With knock-down of WDR75 (WD repeat domain 75) #2 the results were total luciferase, z-score -0.956; total luciferase, % of control 62.9; inactive. After knock-down of WDR75 (WD repeat domain 75) #3, the record shows total luciferase, z-score -1.38; total luciferase, % of control 54.5; inactive.

TAF1 (TATA-box binding protein associated factor 1) #1 scored total luciferase, z-score -0.718; total luciferase, % of control 67.6; inactive. Silencing of TAF1 (TATA-box binding protein associated factor 1) #2 gave: total luciferase, z-score -0.505; total luciferase, % of control 71.8; inactive. TAF1 (TATA-box binding protein associated factor 1) #3 showed total luciferase, z-score 2.04; total luciferase, % of control 122; inactive.

4 of these entries, reformatted.
gene symbol	reagent	total luciferase, z-score	total luciferase, % of control	call
RPL18P4 (ribosomal protein L18 pseudogene 4)	6	-0.925	63.5	inactive
CORO1B (coronin 1B)	1	0.205	86	inactive
CORO1B (coronin 1B)	2	-0.617	69.6	inactive
CORO1B (coronin 1B)	3	0.672	95.2	inactive

Next reagents follow:
SMPD3 (sphingomyelin phosphodiesterase 3) #1 scored total luciferase, z-score 0.218; total luciferase, % of control 86.2; inactive. For SMPD3 (sphingomyelin phosphodiesterase 3) #2 the deposit lists total luciferase, z-score -1.15; total luciferase, % of control 59; inactive. SMPD3 (sphingomyelin phosphodiesterase 3) #3 scored total luciferase, z-score 0.127; total luciferase, % of control 84.4; inactive. With knock-down of KHDC4 (KH domain containing 4, pre-mRNA splicing factor) #1, the screen gave total luciferase, z-score -0.155; total luciferase, % of control 78.8; inactive. KHDC4 (KH domain containing 4, pre-mRNA splicing factor) #2 showed total luciferase, z-score -1.11; total luciferase, % of control 59.8; inactive. Depletion of KHDC4 (KH domain containing 4, pre-mRNA splicing factor) #3 came out at: total luciferase, z-score -0.692; total luciferase, % of control 68.1; inactive.

After knock-down of ILKAP (ILK associated serine/threonine phosphatase) #1 the results were total luciferase, z-score 0.495; total luciferase, % of control 91.7; inactive. Knock-down of ILKAP (ILK associated serine/threonine phosphatase) #2 gave: total luciferase, z-score 1.2; total luciferase, % of control 106; inactive. After knock-down of ILKAP (ILK associated serine/threonine phosphatase) #3, the record shows total luciferase, z-score -1.06; total luciferase, % of control 60.8; inactive. Silencing of ZNF514 (zinc finger protein 514) #1 resulted in: total luciferase, z-score -0.443; total luciferase, % of control 73.1; inactive. ZNF514 (zinc finger protein 514) #2 gave total luciferase, z-score 1.65; total luciferase, % of control 115; inactive. ZNF514 (zinc finger protein 514) #3 showed total luciferase, z-score -1.12; total luciferase, % of control 59.7; inactive.

Knock-down of FA2H (fatty acid 2-hydroxylase) #1 came out at: total luciferase, z-score -0.327; total luciferase, % of control 75.4; inactive. For FA2H (fatty acid 2-hydroxylase) #2, the values are total luciferase, z-score 0.393; total luciferase, % of control 89.7; inactive. With knock-down of FA2H (fatty acid 2-hydroxylase) #3, the screen gave total luciferase, z-score 1.2; total luciferase, % of control 106; inactive. Depletion of DCTN2 (dynactin subunit 2) #1 gave: total luciferase, z-score -1.69; total luciferase, % of control 48.2; inactive. With knock-down of DCTN2 (dynactin subunit 2) #2, the record shows total luciferase, z-score -0.361; total luciferase, % of control 74.7; inactive. Depletion of DCTN2 (dynactin subunit 2) #3 gave: total luciferase, z-score -0.787; total luciferase, % of control 66.2; inactive.

After knock-down of OR8G2P (olfactory receptor family 8 subfamily G member 2 pseudogene) #1, the record shows total luciferase, z-score -0.0019; total luciferase, % of control 81.8; inactive. OR8G2P (olfactory receptor family 8 subfamily G member 2 pseudogene) #2 showed total luciferase, z-score 0.207; total luciferase, % of control 86; inactive. With knock-down of OR8G2P (olfactory receptor family 8 subfamily G member 2 pseudogene) #3, the screen gave total luciferase, z-score 0.893; total luciferase, % of control 99.6; inactive. With knock-down of TRIM62 (tripartite motif containing 62) #1, the record shows total luciferase, z-score -2.98; total luciferase, % of control 22.7; inactive. After knock-down of TRIM62 (tripartite motif containing 62) #2, the record shows total luciferase, z-score 0.0163; total luciferase, % of control 82.2; inactive. After knock-down of TRIM62 (tripartite motif containing 62) #3 the results were total luciferase, z-score 0.0779; total luciferase, % of control 83.4; inactive.

Silencing of LINC00951 (long independently transcribed non-coding RNA 951) #1 gave: total luciferase, z-score 0.797; total luciferase, % of control 97.7; inactive. LINC00951 (long independently transcribed non-coding RNA 951) #2 gave total luciferase, z-score 2.22; total luciferase, % of control 126; inactive. Silencing of LINC00951 (long independently transcribed non-coding RNA 951) #3 came out at: total luciferase, z-score 2.84; total luciferase, % of control 138; inactive.
